Experimental data from the supplement of paper PMC11006884.
Shown are results outside the selection of targets with a hit, which stands elsewhere. Single values of this set are uncertain. The list shows a part of the results, in another mix than the full data.

The chains behind the UniProt entries cited, without tags or fusion partners. Where a name states a change or a piece, a line headed by the entry shows the natural chain unless it says otherwise.
UniProt Q9NVI1: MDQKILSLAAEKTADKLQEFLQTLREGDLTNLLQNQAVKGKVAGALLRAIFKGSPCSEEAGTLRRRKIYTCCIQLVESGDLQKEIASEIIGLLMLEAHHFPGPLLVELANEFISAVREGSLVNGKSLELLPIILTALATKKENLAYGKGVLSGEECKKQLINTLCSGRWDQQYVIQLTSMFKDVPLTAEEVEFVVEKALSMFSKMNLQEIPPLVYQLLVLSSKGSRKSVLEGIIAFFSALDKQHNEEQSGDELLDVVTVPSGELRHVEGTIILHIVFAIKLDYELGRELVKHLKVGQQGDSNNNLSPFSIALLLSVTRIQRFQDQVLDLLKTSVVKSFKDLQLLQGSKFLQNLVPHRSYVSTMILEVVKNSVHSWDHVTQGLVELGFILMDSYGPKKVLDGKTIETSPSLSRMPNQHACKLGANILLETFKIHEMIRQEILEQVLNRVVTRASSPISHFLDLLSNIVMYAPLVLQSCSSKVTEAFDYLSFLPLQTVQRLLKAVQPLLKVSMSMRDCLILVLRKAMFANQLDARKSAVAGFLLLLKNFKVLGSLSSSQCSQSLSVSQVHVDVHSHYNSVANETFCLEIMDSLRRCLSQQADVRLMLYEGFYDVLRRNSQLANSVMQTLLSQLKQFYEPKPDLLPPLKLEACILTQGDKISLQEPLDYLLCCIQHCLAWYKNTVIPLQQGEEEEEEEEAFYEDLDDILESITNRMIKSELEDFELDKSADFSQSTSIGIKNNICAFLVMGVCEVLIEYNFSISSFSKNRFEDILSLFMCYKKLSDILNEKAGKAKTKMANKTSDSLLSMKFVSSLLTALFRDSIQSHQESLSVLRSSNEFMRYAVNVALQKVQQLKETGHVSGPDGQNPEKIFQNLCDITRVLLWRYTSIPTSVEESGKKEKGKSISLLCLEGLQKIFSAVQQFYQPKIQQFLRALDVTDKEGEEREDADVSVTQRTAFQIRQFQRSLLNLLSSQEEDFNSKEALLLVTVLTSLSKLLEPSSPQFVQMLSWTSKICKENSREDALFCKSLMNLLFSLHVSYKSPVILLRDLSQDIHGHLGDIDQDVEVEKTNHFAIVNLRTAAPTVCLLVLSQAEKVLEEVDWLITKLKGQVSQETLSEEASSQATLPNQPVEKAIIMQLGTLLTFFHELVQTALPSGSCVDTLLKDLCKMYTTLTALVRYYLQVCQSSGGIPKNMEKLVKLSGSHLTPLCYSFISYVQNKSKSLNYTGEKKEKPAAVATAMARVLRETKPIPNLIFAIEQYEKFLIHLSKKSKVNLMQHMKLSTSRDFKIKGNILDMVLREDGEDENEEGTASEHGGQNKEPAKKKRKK
UniProt Q9UG01, whole entry: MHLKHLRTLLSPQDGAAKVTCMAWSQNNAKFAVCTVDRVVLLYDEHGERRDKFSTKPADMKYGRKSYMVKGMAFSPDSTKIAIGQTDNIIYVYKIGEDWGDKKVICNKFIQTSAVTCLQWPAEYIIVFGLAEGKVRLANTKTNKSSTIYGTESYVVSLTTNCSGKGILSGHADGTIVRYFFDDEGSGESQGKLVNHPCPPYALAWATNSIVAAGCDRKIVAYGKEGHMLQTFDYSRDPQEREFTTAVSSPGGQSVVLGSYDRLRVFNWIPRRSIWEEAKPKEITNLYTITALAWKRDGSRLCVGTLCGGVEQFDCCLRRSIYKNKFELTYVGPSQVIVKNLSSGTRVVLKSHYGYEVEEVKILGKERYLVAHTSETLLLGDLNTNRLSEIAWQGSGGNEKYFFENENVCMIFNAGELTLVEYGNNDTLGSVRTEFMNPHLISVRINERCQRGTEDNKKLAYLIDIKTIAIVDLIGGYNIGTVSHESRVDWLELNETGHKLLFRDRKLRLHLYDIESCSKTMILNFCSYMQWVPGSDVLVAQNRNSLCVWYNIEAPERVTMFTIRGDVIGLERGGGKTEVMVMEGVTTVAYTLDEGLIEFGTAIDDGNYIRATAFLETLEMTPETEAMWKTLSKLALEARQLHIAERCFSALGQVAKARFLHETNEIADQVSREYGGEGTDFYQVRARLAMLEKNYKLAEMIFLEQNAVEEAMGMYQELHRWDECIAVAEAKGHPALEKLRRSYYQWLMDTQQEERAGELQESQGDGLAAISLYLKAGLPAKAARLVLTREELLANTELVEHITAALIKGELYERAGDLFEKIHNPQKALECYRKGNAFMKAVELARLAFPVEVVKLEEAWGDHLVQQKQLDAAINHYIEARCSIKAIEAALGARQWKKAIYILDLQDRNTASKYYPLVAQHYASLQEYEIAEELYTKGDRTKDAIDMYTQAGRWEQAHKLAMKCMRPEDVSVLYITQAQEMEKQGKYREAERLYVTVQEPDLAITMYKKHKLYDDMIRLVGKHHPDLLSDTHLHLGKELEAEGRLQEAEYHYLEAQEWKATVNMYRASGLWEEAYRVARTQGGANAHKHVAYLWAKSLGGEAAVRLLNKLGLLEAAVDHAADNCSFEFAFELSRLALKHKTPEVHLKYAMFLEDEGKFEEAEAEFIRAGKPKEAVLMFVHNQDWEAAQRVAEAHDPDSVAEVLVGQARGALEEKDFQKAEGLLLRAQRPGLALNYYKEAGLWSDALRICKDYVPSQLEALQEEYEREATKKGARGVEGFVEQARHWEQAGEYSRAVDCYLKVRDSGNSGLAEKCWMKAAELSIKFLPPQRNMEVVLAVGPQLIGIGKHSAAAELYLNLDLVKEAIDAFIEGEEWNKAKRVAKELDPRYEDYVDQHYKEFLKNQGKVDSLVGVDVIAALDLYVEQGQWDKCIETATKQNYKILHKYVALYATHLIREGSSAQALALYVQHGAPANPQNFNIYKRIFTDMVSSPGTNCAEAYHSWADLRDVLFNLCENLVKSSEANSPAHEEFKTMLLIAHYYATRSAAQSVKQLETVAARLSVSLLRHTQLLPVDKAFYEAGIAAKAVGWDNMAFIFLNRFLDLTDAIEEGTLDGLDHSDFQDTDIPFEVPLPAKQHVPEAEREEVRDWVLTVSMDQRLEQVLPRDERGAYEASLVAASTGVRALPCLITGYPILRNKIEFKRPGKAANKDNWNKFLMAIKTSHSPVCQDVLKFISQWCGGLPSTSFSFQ
UniProt Q9P1U0, whole entry: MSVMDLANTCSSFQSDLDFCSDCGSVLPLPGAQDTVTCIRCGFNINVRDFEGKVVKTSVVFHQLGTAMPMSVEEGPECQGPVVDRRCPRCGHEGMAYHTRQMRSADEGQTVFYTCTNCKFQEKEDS
UniProt Q9NZW5: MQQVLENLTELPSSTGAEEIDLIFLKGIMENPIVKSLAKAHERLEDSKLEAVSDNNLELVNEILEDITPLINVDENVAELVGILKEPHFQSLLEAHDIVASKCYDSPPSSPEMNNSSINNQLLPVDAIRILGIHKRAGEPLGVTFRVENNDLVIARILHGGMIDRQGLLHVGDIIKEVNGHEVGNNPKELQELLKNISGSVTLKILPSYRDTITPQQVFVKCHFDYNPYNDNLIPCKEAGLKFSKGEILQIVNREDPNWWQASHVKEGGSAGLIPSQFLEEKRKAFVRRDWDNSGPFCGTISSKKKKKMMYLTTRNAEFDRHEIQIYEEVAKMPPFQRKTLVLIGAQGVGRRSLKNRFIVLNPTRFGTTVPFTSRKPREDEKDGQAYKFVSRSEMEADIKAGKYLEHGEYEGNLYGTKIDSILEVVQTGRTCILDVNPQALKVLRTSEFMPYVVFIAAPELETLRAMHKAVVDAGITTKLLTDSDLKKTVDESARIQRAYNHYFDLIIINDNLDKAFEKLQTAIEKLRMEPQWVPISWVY
UniProt Q9UBE0: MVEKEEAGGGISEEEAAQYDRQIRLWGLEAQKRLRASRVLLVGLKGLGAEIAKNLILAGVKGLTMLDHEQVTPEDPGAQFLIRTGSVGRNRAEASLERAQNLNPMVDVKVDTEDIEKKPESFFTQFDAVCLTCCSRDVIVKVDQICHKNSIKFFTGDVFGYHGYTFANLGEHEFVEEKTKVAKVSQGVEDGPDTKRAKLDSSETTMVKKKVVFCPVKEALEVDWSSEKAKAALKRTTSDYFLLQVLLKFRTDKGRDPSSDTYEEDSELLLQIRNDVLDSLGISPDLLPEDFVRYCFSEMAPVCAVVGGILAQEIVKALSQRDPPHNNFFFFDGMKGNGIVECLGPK
UniProt Q9NVR2, whole entry: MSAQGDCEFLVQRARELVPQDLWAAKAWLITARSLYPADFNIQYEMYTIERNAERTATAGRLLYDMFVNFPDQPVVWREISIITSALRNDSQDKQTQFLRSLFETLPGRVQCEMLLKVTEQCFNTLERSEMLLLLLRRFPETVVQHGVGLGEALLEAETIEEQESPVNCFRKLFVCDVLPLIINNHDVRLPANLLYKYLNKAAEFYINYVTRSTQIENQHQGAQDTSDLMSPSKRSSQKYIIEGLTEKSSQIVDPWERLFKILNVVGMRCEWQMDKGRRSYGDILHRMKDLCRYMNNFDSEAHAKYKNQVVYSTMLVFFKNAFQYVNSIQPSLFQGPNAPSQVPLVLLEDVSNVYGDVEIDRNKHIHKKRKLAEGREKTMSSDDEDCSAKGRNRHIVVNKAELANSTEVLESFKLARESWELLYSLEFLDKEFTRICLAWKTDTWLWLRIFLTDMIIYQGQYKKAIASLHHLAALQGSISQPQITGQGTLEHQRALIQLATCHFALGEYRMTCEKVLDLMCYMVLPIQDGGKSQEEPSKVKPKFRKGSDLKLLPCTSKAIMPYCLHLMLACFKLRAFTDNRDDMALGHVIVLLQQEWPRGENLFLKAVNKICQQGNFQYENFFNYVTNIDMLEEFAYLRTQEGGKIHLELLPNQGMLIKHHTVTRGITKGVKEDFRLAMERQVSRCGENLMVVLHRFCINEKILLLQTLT
UniProt Q9NVP2, whole entry, looked up: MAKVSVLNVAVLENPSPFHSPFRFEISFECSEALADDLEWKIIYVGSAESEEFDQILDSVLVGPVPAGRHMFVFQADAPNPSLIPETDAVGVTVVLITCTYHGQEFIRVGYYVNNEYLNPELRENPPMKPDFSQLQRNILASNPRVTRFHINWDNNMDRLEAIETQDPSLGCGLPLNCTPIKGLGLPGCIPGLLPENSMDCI
UniProt Q9NW64: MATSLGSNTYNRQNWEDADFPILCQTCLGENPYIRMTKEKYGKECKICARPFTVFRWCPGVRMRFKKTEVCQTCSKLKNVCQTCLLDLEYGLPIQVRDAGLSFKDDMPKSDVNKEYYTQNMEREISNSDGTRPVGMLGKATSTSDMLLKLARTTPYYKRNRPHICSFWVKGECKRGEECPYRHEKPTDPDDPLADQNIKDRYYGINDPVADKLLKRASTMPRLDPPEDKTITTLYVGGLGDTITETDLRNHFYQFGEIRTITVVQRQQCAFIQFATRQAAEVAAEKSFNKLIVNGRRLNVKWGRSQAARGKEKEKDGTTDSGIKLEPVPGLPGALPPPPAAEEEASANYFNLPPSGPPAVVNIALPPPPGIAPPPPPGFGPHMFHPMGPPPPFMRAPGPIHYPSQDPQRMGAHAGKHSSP
UniProt Q9NYH9: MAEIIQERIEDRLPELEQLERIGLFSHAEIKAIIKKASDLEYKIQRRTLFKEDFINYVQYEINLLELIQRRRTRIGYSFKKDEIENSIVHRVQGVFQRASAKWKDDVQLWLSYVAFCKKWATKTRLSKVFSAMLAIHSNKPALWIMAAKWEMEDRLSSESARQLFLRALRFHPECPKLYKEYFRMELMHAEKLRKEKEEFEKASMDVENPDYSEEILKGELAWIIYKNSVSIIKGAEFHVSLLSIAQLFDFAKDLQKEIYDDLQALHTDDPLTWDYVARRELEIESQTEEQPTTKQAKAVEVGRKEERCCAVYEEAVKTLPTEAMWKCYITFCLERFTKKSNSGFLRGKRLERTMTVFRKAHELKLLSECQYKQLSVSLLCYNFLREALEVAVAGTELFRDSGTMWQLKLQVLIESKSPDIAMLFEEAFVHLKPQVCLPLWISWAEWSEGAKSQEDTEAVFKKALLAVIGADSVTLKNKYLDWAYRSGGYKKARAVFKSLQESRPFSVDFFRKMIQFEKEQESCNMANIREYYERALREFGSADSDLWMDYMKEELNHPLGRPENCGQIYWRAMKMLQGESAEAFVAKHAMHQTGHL
UniProt Q9NX63: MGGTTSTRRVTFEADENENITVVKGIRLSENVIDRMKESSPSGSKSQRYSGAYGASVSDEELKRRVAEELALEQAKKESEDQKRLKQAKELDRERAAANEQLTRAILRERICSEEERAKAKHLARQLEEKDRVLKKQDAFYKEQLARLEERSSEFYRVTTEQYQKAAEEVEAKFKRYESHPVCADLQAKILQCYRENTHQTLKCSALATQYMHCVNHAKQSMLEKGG
UniProt Q9UBF6, whole entry: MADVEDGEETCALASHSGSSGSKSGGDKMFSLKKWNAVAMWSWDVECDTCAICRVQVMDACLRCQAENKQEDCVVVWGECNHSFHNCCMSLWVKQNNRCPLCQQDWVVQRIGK

compound: COC(=O)/C=C/c1ccccc1 [methyl cinnamate]; experiment: log2 ratio of iodoacetamide-alkyne labeling of the cysteine site, DMSO over compound (competition); higher = stronger covalent engagement of the cysteine by the compound, active = 1 or more; conditions: 500 µM; treatment time 1 h; system: HEK293T cell lysate
Procedure, shortened: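 HEK293T lysate (2 mg/mL) was incubated with electrophile (500 µM) or vehicle for 1 h at ambient temperature and then with iodoacetamide alkyne for 1 h. Labelled proteins were clicked to sCIP-TMT reagents, pooled, digested, enriched on streptavidin and measured by Orbitrap Eclipse LC-MS/MS with FAIMS, with FragPipe quantification. The per-cysteine log2 competition ratio is mean control-channel reporter intensity over mean compound-channel reporter intensity. Across three replicates with duplicate channels, cysteines quantified in only one replicate were excluded.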

log2 ratio of iodoacetamide-alkyne labeling, inactive:
UniProt Q9NWY4_C17 0.339
UniProt Q9P266_C1347 0.357
TES C46 (UniProt Q9UGI8) -0.132
LARS C546 (UniProt Q9P2J5) -0.0676
LIMD1 C401 (UniProt Q9UGP4) 0.038
NCDN C22 (UniProt Q9UBB6) 0.384
CNOT2 C175 (UniProt Q9NZN8) -0.0595
MKRN1 C179 (UniProt Q9UHC7) 0.0097
MRPL27 C88 (UniProt Q9P0M9) 0.143
FANCI C875 (UniProt Q9NVI1) 0.141
CPSF2 C763 (UniProt Q9P2I0) 0.167
NCDN C158 (UniProt Q9UBB6) -0.0542
EPS15L1 C470 (UniProt Q9UBC2) 0.1
IFT172 C1686 (UniProt Q9UG01) -0.195
ZNRD1 C78 (UniProt Q9P1U0) 0.249
MPP6 C236 (UniProt Q9NZW5) 0.0559
SAE1 C214 (UniProt Q9UBE0) 0.0405
WWOX C382 (UniProt Q9NZC7) 0.289
INTS10 C7 (UniProt Q9NVR2) 0.367
UniProt Q9UBD5_C159 0.679
TES C416 (UniProt Q9UGI8) -0.0167
THG1L C279 (UniProt Q9NWX6) -0.253
FANCI C1085 (UniProt Q9NVI1) -0.0435
SRP68 C247 (UniProt Q9UHB9) -0.129
DNMT3B C651 (UniProt Q9UBC3) -0.0729
ASF1B C178 (UniProt Q9NVP2) 0.387
STK39 C525 (UniProt Q9UEW8) 0.37
UniProt Q9NW64_C27 -0.0314
ZNF629 C110 (UniProt Q9UEG4) 0.0652
FAM120A C531 (UniProt Q9NZB2) 0.233
PEF1 C230 (UniProt Q9UBV8) 0.0438
UTP6 C310 (UniProt Q9NYH9) 0.0434
CPSF2 C82 (UniProt Q9P2I0) 0.425
UniProt Q9NV64_C29 0.442
CHCHD3 C112 (UniProt Q9NX63) 0.107
UTP6 C175 (UniProt Q9NYH9) 0.0176
RNF7 C11 (UniProt Q9UBF6) 0.28
PHRF1 C797 (UniProt Q9P1Y6) -0.135

Retrieved one by one from above (2):
log2 ratio of iodoacetamide-alkyne labeling, inactive:
ZNRD1 C78 (UniProt Q9P1U0) 0.249
PHRF1 C797 (UniProt Q9P1Y6) -0.135
